The series in a line: Electrochromic element characteristic evaluation.

Consider `Cc1cc(C)c(-c2cc3sc4cc(-c5cccc(-c6cc[n+](Cc7ccccc7)cc6)c5)sc4c3s2)c(C)c1` [Compound A-1], for which the “transmittance over the entire visible light region” value (EC element immediately after production, 40.0 mM in propylene carbonate, 0.1 M tetrabutylammonium perchlorate) is on record as “about 80%”. Also, where the note is “EC element, 40.0 mM, voltage of 1.6 V”, the “absorption λmax in coloring” value was determined as 493 nm. Besides, the “transmittance at λmax during voltage application” value (EC element, 40.0 mM, voltage of 1.6 V, 493 nm) came to 1.5%.

Turning to `Cc1cc(C)c(-c2cc3sc4cc(-c5cccc(-c6ccncc6)c5)sc4c3s2)c(C)c1` [Ref-1, reference compound], the “absorption peak wavelength in oxidation coloring” value (EC element, 4.0 mM) worked out at 494 nm. The “transmittance at the absorption peak wavelength in oxidation coloring” value (EC element, 4.0 mM, 494 nm) stood at 65%.

Values taken from patent publication US9310660B2, “Organic compound and electrochromic element including the same” (CANON KABUSHIKI KAISHA, priority 2013, dated 2016).
